# Assay results as given in the supplement of paper PMC4604168 (melanoma cell lines).
# The other results are listed elsewhere or left out. Repeats are few or missing, and single values can be far off.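 Cells were imaged in 1,536-well plates, and nuclei stained with an antibody against cleaved PARP were counted against all DNA-stained nuclei to give the apoptosis fraction. Screening doses were chosen to leave most cells alive, and resting and induced cleaved-PARP levels differ strongly between cell lines.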
# Experiments:
# Test in all cases: cleaved PARP positive nuclei fraction relative to DMSO control; melanoma cells; higher = more apoptosis
# Settings in all cases: library dose: low library concentration; 72 h
# [1] = system: 501Mel
# [2] = system: A101D
# [3] = system: A2058
# [4] = system: A375
# [5] = system: C32
# [6] = system: CBRC008 (line from a melanoma biopsy)
# [7] = system: CBRC014 (line from a melanoma biopsy)
# [8] = system: CBRC016 (line from a melanoma biopsy)
# [9] = system: CBRC017 (line from a melanoma biopsy)
# [10] = system: CBRC034 (line from a melanoma biopsy)
# [11] = system: COLO792
# [12] = system: COLO800
# [13] = system: COLO829
# [14] = system: G361
# [15] = system: IPC-298
# [16] = system: IST-MEL1
# [17] = system: LB2518-MEL
# [18] = system: LOXIMVI
# [19] = system: MEL-HO
Compound,cleaved PARP positive nuclei fraction [1],cleaved PARP positive nuclei fraction [2],cleaved PARP positive nuclei fraction [3],cleaved PARP positive nuclei fraction [4],cleaved PARP positive nuclei fraction [5],cleaved PARP positive nuclei fraction [6],cleaved PARP positive nuclei fraction [7],cleaved PARP positive nuclei fraction [8],cleaved PARP positive nuclei fraction [9],cleaved PARP positive nuclei fraction [10],cleaved PARP positive nuclei fraction [11],cleaved PARP positive nuclei fraction [12],cleaved PARP positive nuclei fraction [13],cleaved PARP positive nuclei fraction [14],cleaved PARP positive nuclei fraction [15],cleaved PARP positive nuclei fraction [16],cleaved PARP positive nuclei fraction [17],cleaved PARP positive nuclei fraction [18],cleaved PARP positive nuclei fraction [19]
"Cc1cc(Nc2cc(N3CCN(C)CC3)nc(Sc3ccc(NC(=O)C4CC4)cc3)n2)n[nH]1 [Tozasertib] + CO[C@H]1C[C@@H]2CC[C@@H](C)[C@@](O)(O2)C(=O)C(=O)N2CCCC[C@H]2C(=O)O[C@H]([C@H](C)C[C@@H]2CC[C@@H](OCCO)[C@H](OC)C2)CC(=O)[C@H](C)/C=C(\C)[C@@H](O)[C@@H](OC)C(=O)[C@H](C)C[C@H](C)/C=C/C=C/C=C/1C [everolimus] (first compound 0.006 µM, partner dose 0.02 µM)",337%,82.8%,140%,1810%,96.9%,114%,109%,39.5%,108%,77%,178%,103%,173%,141%,110%,69%,149%,113%,285%
"O=C(Nc1cc(C(F)(F)F)cc(C(F)(F)F)c1)c1cc(Cl)ccc1O + NC1(c2ccc(-c3nc4ccn5c(=O)[nH]nc5c4cc3-c3ccccc3)cc2)CCC1 [MK2206] (first compound 0.016 µM, partner dose 0.4 µM)",214%,60.8%,75.9%,199%,523%,110%,97.1%,31.2%,113%,133%,83.5%,158%,171%,147%,58.6%,44.9%,56.3%,158%,41.1%
"Cc1ccc(Nc2nccc(N(C)c3ccc4c(C)n(C)nc4c3)n2)cc1S(N)(=O)=O [Pazopanib] + C[C@@H](Oc1cc(-c2cnn(C3CCNCC3)c2)cnc1N)c1c(Cl)ccc(F)c1Cl [Crizotinib] (first compound 0.4 µM, partner dose 0.2 µM)",129%,53.7%,51.7%,181%,74.2%,71.6%,114%,127%,84.6%,78.8%,126%,108%,152%,221%,149%,66.1%,90.7%,95.8%,121%
"N#CC[C@H](C1CCCC1)n1cc(-c2ncnc3[nH]ccc23)cn1 [ruxolitinib] + O=C(/C=C/c1cccnc1)NCCCCC1CCN(C(=O)c2ccccc2)CC1 [FK866] (first compound 1 µM, partner dose 0.01 µM)",98.9%,124%,58.4%,55.3%,70.5%,1980%,287%,238%,311%,1640%,188%,67.7%,110%,2490%,381%,128%,118%,16.6%,306%
"Cc1cc(Nc2cc(N3CCN(C)CC3)nc(Sc3ccc(NC(=O)C4CC4)cc3)n2)n[nH]1 [Tozasertib] + Cn1c(Nc2ccc(C(F)(F)F)cc2)nc2cc(Oc3ccnc(-c4ncc(C(F)(F)F)[nH]4)c3)ccc21 [CHIR265] (first compound 0.006 µM, partner dose 0.08 µM)",337%,67.4%,297%,555%,26%,238%,116%,254%,114%,290%,391%,72.4%,125%,521%,68.5%,170%,405%,52.1%,189%
"Cc1ccc(Nc2nccc(N(C)c3ccc4c(C)n(C)nc4c3)n2)cc1S(N)(=O)=O [Pazopanib] + OCc1c[nH]c2ccccc12 [Indole-3-carbinol] (first compound 0.4 µM, partner dose 0.8 µM)",164%,133%,62%,179%,65.9%,126%,120%,26.7%,104%,74.1%,51.7%,56%,110%,148%,66.2%,33.8%,49.3%,85.5%,129%
"N#CC[C@H](C1CCCC1)n1cc(-c2ncnc3[nH]ccc23)cn1 [ruxolitinib] + Nc1nc(F)nc2c1ncn2[C@@H]1O[C@H](CO)[C@@H](O)[C@@H]1O [fludarabine] (first compound 1 µM, partner dose 0.2 µM)",15700%,88.5%,62.7%,1930%,165%,99.8%,95.4%,23.9%,107%,38.7%,140%,73.3%,129%,201%,45.6%,68.8%,93.6%,52.5%,77.5%
"O=c1[nH]nc(Sc2ncc([N+](=O)[O-])s2)n1-c1ccc2c(c1)OCCO2 + CC(=O)O[C@@]12CO[C@@H]1C[C@H](O)[C@@]1(C)C(=O)[C@H](O)C3=C(C)[C@@H](OC(=O)[C@H](O)[C@@H](NC(=O)OC(C)(C)C)c4ccccc4)C[C@@](O)([C@@H](OC(=O)c4ccccc4)[C@H]21)C3(C)C [Docetaxel] (first compound 0.2 µM, partner dose 0.0001 µM)",116%,131%,1890%,1090%,162%,329%,126%,313%,239%,45.3%,472%,174%,253%,729%,179%,459%,142%,256%,127%
"Cc1ccc(Nc2nccc(N(C)c3ccc4c(C)n(C)nc4c3)n2)cc1S(N)(=O)=O [Pazopanib] + CS(=O)(=O)CCNCc1ccc(-c2ccc3ncnc(Nc4ccc(OCc5cccc(F)c5)c(Cl)c4)c3c2)o1 [lapatinib] (first compound 0.4 µM, partner dose 0.8 µM)",312%,54.3%,143%,77.8%,76.6%,182%,96.1%,184%,143%,62.7%,97.6%,116%,123%,137%,137%,114%,92.9%,121%,62.8%
"N#CC[C@H](C1CCCC1)n1cc(-c2ncnc3[nH]ccc23)cn1 [ruxolitinib] + CC[C@]1(O)C[C@H]2CN(CCc3c([nH]c4ccccc34)[C@@](C(=O)OC)(c3cc4c(cc3OC)N(C=O)[C@H]3[C@@](O)(C(=O)OC)[C@H](OC(C)=O)[C@]5(CC)C=CCN6CC[C@]43[C@@H]65)C2)C1 [vincristine] (first compound 1 µM, partner dose 0.0001 µM)",58.1%,44%,93.5%,139%,83%,174%,91.6%,81.4%,182%,54.5%,129%,87.2%,60%,70.7%,77.9%,126%,79.9%,172%,164%
"O=C(Nc1cc(C(F)(F)F)cc(C(F)(F)F)c1)c1cc(Cl)ccc1O + COc1ccc(Cl)c(Nc2nc3ccccc3nc2NS(=O)(=O)c2cccc(NC(=O)C(C)(C)N)c2)c1 [XL147] (first compound 0.016 µM, partner dose 0.8 µM)",56.4%,175%,108%,129%,35.6%,292%,106%,265%,117%,74.2%,84.7%,44.6%,130%,90.2%,132%,171%,111%,124%,39.1%
"CCCCCCCCCCCCCCCCCCOP(=O)([O-])OC1CC[N+](C)(C)CC1 [Perifosine] + CC(=O)c1c(C)c2cnc(Nc3ccc(N4CCNCC4)cn3)nc2n(C2CCCC2)c1=O [palbociclib] (first compound 0.4 µM, partner dose 0.04 µM)",1040%,324%,113%,606%,156%,68.7%,105%,61.9%,92.8%,61.2%,113%,98.6%,61.5%,83.8%,93.5%,68.1%,94.8%,67.5%,63.1%
"CCCCCCCCCCCCCCCCCCOP(=O)([O-])OC1CC[N+](C)(C)CC1 [Perifosine] + Nc1nc(F)nc2c1ncn2[C@@H]1O[C@H](CO)[C@@H](O)[C@@H]1O [fludarabine] (first compound 0.4 µM, partner dose 0.2 µM)",30800%,30.6%,114%,4000%,45.9%,120%,97.4%,44.1%,100%,32.9%,135%,101%,101%,129%,58.3%,89.5%,53.6%,89.3%,156%
"O=C(/C=C/c1cccnc1)NCCCCC1CCN(C(=O)c2ccccc2)CC1 + C[C@@H](Oc1cc(-c2cnn(C3CCNCC3)c2)cnc1N)c1c(Cl)ccc(F)c1Cl [Crizotinib] (first compound 0.01 µM, partner dose 0.2 µM)",85.1%,44%,47.1%,98.8%,137%,7390%,104%,1670%,514%,885%,484%,284%,178%,5280%,234%,108%,53.9%,24.9%,151%
"CCCCCCCCCCCCCCCCCCOP(=O)([O-])OC1CC[N+](C)(C)CC1 [Perifosine] + CN1CCN(c2ccc3nc(-c4c(N)c5c(F)cccc5[nH]c4=O)[nH]c3c2)CC1 [Dovitinib] (first compound 0.4 µM, partner dose 0.1 µM)",112%,271%,97.7%,208%,72.5%,62%,76.8%,153%,88.3%,82.5%,66%,83.5%,174%,274%,44.1%,124%,53.9%,207%,63.3%
"Cc1ccc(Nc2nccc(N(C)c3ccc4c(C)n(C)nc4c3)n2)cc1S(N)(=O)=O [Pazopanib] + CC(C)C[C@H](NC(=O)[C@H](Cc1ccccc1)NC(=O)c1cnccn1)B(O)O [Bortezomib] (first compound 0.4 µM, partner dose 0.001 µM)",118%,177%,50.4%,178%,74.1%,242%,128%,95.9%,123%,67.3%,120%,144%,181%,97%,34.1%,93.3%,120%,111%,24.8%

# Nothing new here: an excerpt of the list.
Compound,cleaved PARP positive nuclei fraction [1],cleaved PARP positive nuclei fraction [2],cleaved PARP positive nuclei fraction [3],cleaved PARP positive nuclei fraction [4],cleaved PARP positive nuclei fraction [5],cleaved PARP positive nuclei fraction [6],cleaved PARP positive nuclei fraction [7],cleaved PARP positive nuclei fraction [8],cleaved PARP positive nuclei fraction [9],cleaved PARP positive nuclei fraction [10],cleaved PARP positive nuclei fraction [11],cleaved PARP positive nuclei fraction [12],cleaved PARP positive nuclei fraction [13],cleaved PARP positive nuclei fraction [14],cleaved PARP positive nuclei fraction [15],cleaved PARP positive nuclei fraction [16],cleaved PARP positive nuclei fraction [17],cleaved PARP positive nuclei fraction [18],cleaved PARP positive nuclei fraction [19]
"Cc1ccc(Nc2nccc(N(C)c3ccc4c(C)n(C)nc4c3)n2)cc1S(N)(=O)=O [Pazopanib] + OCc1c[nH]c2ccccc12 [Indole-3-carbinol] (first compound 0.4 µM, partner dose 0.8 µM)",164%,133%,62%,179%,65.9%,126%,120%,26.7%,104%,74.1%,51.7%,56%,110%,148%,66.2%,33.8%,49.3%,85.5%,129%
"N#CC[C@H](C1CCCC1)n1cc(-c2ncnc3[nH]ccc23)cn1 [ruxolitinib] + Nc1nc(F)nc2c1ncn2[C@@H]1O[C@H](CO)[C@@H](O)[C@@H]1O [fludarabine] (first compound 1 µM, partner dose 0.2 µM)",15700%,88.5%,62.7%,1930%,165%,99.8%,95.4%,23.9%,107%,38.7%,140%,73.3%,129%,201%,45.6%,68.8%,93.6%,52.5%,77.5%
"O=c1[nH]nc(Sc2ncc([N+](=O)[O-])s2)n1-c1ccc2c(c1)OCCO2 + CC(=O)O[C@@]12CO[C@@H]1C[C@H](O)[C@@]1(C)C(=O)[C@H](O)C3=C(C)[C@@H](OC(=O)[C@H](O)[C@@H](NC(=O)OC(C)(C)C)c4ccccc4)C[C@@](O)([C@@H](OC(=O)c4ccccc4)[C@H]21)C3(C)C [Docetaxel] (first compound 0.2 µM, partner dose 0.0001 µM)",116%,131%,1890%,1090%,162%,329%,126%,313%,239%,45.3%,472%,174%,253%,729%,179%,459%,142%,256%,127%
"Cc1ccc(Nc2nccc(N(C)c3ccc4c(C)n(C)nc4c3)n2)cc1S(N)(=O)=O [Pazopanib] + CS(=O)(=O)CCNCc1ccc(-c2ccc3ncnc(Nc4ccc(OCc5cccc(F)c5)c(Cl)c4)c3c2)o1 [lapatinib] (first compound 0.4 µM, partner dose 0.8 µM)",312%,54.3%,143%,77.8%,76.6%,182%,96.1%,184%,143%,62.7%,97.6%,116%,123%,137%,137%,114%,92.9%,121%,62.8%
